Laboratory results published in patent US20180320217A1, “METHODS FOR SAMPLING AND MEASURING ORAL LAVAGE PROTEINS” (The Procter & Gamble Company, priority 2017, published 2018).

B1: PRDX2_HUMAN (protein, UniProt P32119 2-198, looked up)
Peroxiredoxin-2: ASGNARIGKPAPDFKATAVVDGAFKEVKLSDYKGKYVVLFFYPLDFTFVCPTEIIAFSNRAEDFRKLGCEVLGVSVDSQFTHLAWINTPRKEGGLGPLNIPLLADVTRRLSEDYGVLKTDEGIAYRGLFIIDGKGVLRQITVNDLPVGRSVDEALRLVQAFQYTDEHGEVCPAGWKPGSDTIKPNVDDSKEYFSKHN
B2: PEX1_HUMAN (protein, UniProt O43933 1-1283, looked up)
Peroxisomal ATPase PEX1: MWGSDRLAGAGGGGAAVTVAFTNARDCFLHLPRRLVAQLHLLQNQAIEVVWSHQPAFLSWVEGRHFSDQGENVAEINRQVGQKLGLSNGGQVFLKPCSHVVSCQQVEVEPLSADDWEILELHAVSLEQHLLDQIRIVFPKAIFPVWVDQQTYIFIQIVALIPAASYGRLETDTKLLIQPKTRRAKENTFSKADAEYKKLHSYGRDQKGMMKELQTKQLQSNTVGITESNENESEIPVDSSSVASLWTMIGSIFSFQSEKKQETSWGLTEINAFKNMQSKVVPLDNIFRVCKSQPPSIYNASATSVFHKHCAIHVFPWDQEYFDVEPSFTVTYGKLVKLLSPKQQQSKTKQNVLSPEKEKQMSEPLDQKKIRSDHNEEDEKACVLQVVWNGLEELNNAIKYTKNVEVLHLGKVWIPDDLRKRLNIEMHAVVRITPVEVTPKIPRSLKLQPRENLPKDISEEDIKTVFYSWLQQSTTTMLPLVISEEEFIKLETKDGLKEFSLSIVHSWEKEKDKNIFLLSPNLLQKTTIQVLLDPMVKEENSEEIDFILPFLKLSSLGGVNSLGVSSLEHITHSLLGRPLSRQLMSLVAGLRNGALLLTGGKGSGKSTLAKAICKEAFDKLDAHVERVDCKALRGKRLENIQKTLEVAFSEAVWMQPSVVLLDDLDLIAGLPAVPEHEHSPDAVQSQRLAHALNDMIKEFISMGSLVALIATSQSQQSLHPLLVSAQGVHIFQCVQHIQPPNQEQRCEILCNVIKNKLDCDINKFTDLDLQHVAKETGGFVARDFTVLVDRAIHSRLSRQSISTREKLVLTTLDFQKALRGFLPASLRSVNLHKPRDLGWDKIGGLHEVRQILMDTIQLPAKYPELFANLPIRQRTGILLYGPPGTGKTLLAGVIARESRMNFISVKGPELLSKYIGASEQAVRDIFIRAQAAKPCILFFDEFESIAPRRGHDNTGVTDRVVNQLLTQLDGVEGLQGVYVLAATSRPDLIDPALLRPGRLDKCVYCPPPDQVSRLEILNVLSDSLPLADDVDLQHVASVTDSFTGADLKALLYNAQLEALHGMLLSSGLQDGSSSSDSDLSLSSMVFLNHSSGSDDSAGDGECGLDQSLVSLEMSEILPDESKFNMYRLYFGSSYESELGNGTSSDLSSQCLSAPSSMTQDLPGVPGKDQLFSQPPVLRTASQEGCQELTQEQRDQLRADISIIKGRYRSQSGEDESMNQPGPIKTRLAISQSHLMTALGHTRPSISEDDWKNFAELYESFQNPKRRKNQSGTMFRPGQKVTLA
B3: PRDX6_HUMAN (protein, UniProt P30041 2-224, looked up)
Peroxiredoxin-6: PGGLLLGDVAPNFEANTTVGRIRFHDFLGDSWGILFSHPRDFTPVCTTELGRAAKLAPEFAKRNVKLIALSIDSVEDHLAWSKDINAYNCEEPTEKLPFPIIDDRNRELAILLGMLDPAEKDEKGMPVTARVVFVFGPDKKLKLSILYPATTGRNFDEILRVVISLQLTAEKRVATPVDWKDGDSVMVLPTIPEEEAKKLFPKGVFTKELPSGKKYLRYTPQP
B4: PGKl_HUMAN (protein, UniProt P00558 2-417, looked up)
Phosphoglycerate kinase 1: SLSNKLTLDKLDVKGKRVVMRVDFNVPMKNNQITNNQRIKAAVPSIKFCLDNGAKSVVLMSHLGRPDGVPMPDKYSLEPVAVELKSLLGKDVLFLKDCVGPEVEKACANPAAGSVILLENLRFHVEEEGKGKDASGNKVKAEPAKIEAFRASLSKLGDVYVNDAFGTAHRAHSSMVGVNLPQKAGGFLMKKELNYFAKALESPERPFLAILGGAKVADKIQLINNMLDKVNEMIIGGGMAFTFLKVLNNMEIGTSLFDEEGAKIVKDLMSKAEKNGVKITLPVDFVTADKFDENAKTGQATVASGIPAGWMGLDCGPESSKKYAEAVTRAKQIVWNGPVGVFEWEAFARGTKALMDEVVKATSRGCITIIGGGDTATCCAKWNTEDKVSHVSTGGGASLELLEGKVLPGVDALSNI
B5: PSG8_HUMAN (protein, UniProt Q9UQ74 35-426, looked up)
Pregnancy-specific …: QVTIEAQPTKVSEGKDVLLLVHNLPQNLTGYIWYKGQIRDLYHYITSYVVDGQIIIYGPAYSGRETIYSNASLLIQNVTQEDAGSYTLHIIMGGDENRGVTGHFTFTLYLETPKPSISSSKLNPREAMEAVSLTCDPETPDASYLWWMNGQSLPMSHRLQLSETNRTLFLLGVTKYTAGPYECEIRNPVSASRSDPFTLNLLPKLPKPYITINNLKPRENKDVLNFTCEPKSENYTYIWWLNGQSLPVSPRVKRPIENRILILPSVTRNETGPYQCEIRDQYGGIRSYPVTLNVLYGPDLPRIYPSFTYYRSGEVLYLSCSADSNPPAQYSWTINGKFQLSGQKLFIPQITTKHSGLYACSVRNSATGKESSKSMTVKVSGKRIPVSLAIGI
B6: NFH_HUMAN (protein, UniProt P12036 1-1020, looked up)
Neurofilament heavy …: MMSFGGADALLGAPFAPLHGGGSLHYALARKGGAGGTRSAAGSSSGFHSWTRTSVSSVSASPSRFRGAGAASSTDSLDTLSNGPEGCMVAVATSRSEKEQLQALNDRFAGYIDKVRQLEAHNRSLEGEAAALRQQQAGRSAMGELYEREVREMRGAVLRLGAARGQLRLEQEHLLEDIAHVRQRLDDEARQREEAEAAARALARFAQEAEAARVDLQKKAQALQEECGYLRRHHQEEVGELLGQIQGSGAAQAQMQAETRDALKCDVTSALREIRAQLEGHAVQSTLQSEEWFRVRLDRLSEAAKVNTDAMRSAQEEITEYRRQLQARTTELEALKSTKDSLERQRSELEDRHQADIASYQEAIQQLDAELRNTKWEMAAQLREYQDLLNVKMALDIEIAAYRKLLEGEECRIGFGPIPFSLPEGLPKIPSVSTHIKVKSEEKIKVVEKSEKETVIVEEQTEETQVTEEVTEEEEKEAKEEEGKEEEGGEEEEAEGGEEETKSPPAEEAASPEKEAKSPVKEEAKSPAEAKSPEKEEAKSPAEVKSPEKAKSPAKEEAKSPPEAKSPEKEEAKSPAEVKSPEKAKSPAKEEAKSPAEAKSPEKAKSPVKEEAKSPAEAKSPVKEEAKSPAEVKSPEKAKSPTKEEAKSPEKAKSPEKEEAKSPEKAKSPVKAEAKSPEKAKSPVKAEAKSPEKAKSPVKEEAKSPEKAKSPVKEEAKSPEKAKSPVKEEAKTPEKAKSPVKEEAKSPEKAKSPEKAKTLDVKSPEAKTPAKEEARSPADKFPEKAKSPVKEEVKSPEKAKSPLKEDAKAPEKEIPKKEEVKSPVKEEEKPQEVKVKEPPKKAEEEKAPATPKTEEKKDSKKEEAPKKEAPKPKVEEKKEPAVEKPKESKVEAKKEEAEDKKKVPTPEKEAPAKVEVKEDAKPKEKTEVAKKEPDDAKAKEPSKPAEKKEAAPEKKDTKEEKAKKPEEKPKTEAKAKEDDKTLSKEPSKPKAEKAEKSSSTDQKDSKPPEKATEDKAAKGK
B7: PRDX1_HUMAN (protein, UniProt Q06830 2-199, looked up)
Peroxiredoxin-1: SSGNAKIGHPAPNFKATAVMPDGQFKDISLSDYKGKYVVFFFYPLDFTFVCPTEIIAFSDRAEEFKKLNCQVIGASVDSHFCHLAWVNTPKKQGGLGPMNIPLVSDPKRTIAQDYGVLKADEGISFRGLFIIDDKGILRQITVNDLPVGRSVDETLRLVQAFQFTDKHGEVCPAGWKPGSDTIKPDVQKSKEYFSKQK
B8: CH60_HUMAN (protein, UniProt P10809 27-573, looked up)
60 kDa heat shock protein, …: AKDVKFGADARALMLQGVDLLADAVAVTMGPKGRTVIIEQSWGSPKVTKDGVTVAKSIDLKDKYKNIGAKLVQDVANNTNEEAGDGTTTATVLARSIAKEGFEKISKGANPVEIRRGVMLAVDAVIAELKKQSKPVTTPEEIAQVATISANGDKEIGNIISDAMKKVGRKGVITVKDGKTLNDELEIIEGMKFDRGYISPYFINTSKGQKCEFQDAYVLLSEKKISSIQSIVPALEIANAHRKPLVIIAEDVDGEALSTLVLNRLKVGLQVVAVKAPGFGDNRKNQLKDMAIATGGAVFGEEGLTLNLEDVQPHDLGKVGEVIVTKDDAMLLKGKGDKAQIEKRIQEIIEQLDVTTSEYEKEKLNERLAKLSDGVAVLKVGGTSDVEVNEKKDRVTDALNATRAAVEEGIVLGGGCALLRCIPALDSLTPANEDQKIGIEIIKRTLKIPAMTIAKNAGVEGSLIVEKIMQSSSEVGYDAMAGDFVNMVEKGIIDPTKVVRTALLDAAGVASLLTTAEVVVTEIPKEEKDPGMGAMGGMGGGMGGGMF
B9: ZC12B_HUMAN (protein, UniProt Q5HYM0 1-836, looked up)
Probable ribonuclease ZC3H12B: MTATAEVETPKMEKSASKEEKQQPKQDSTEQGNADSEEWMSSESDPEQISLKSSDNSKSCQPRDGQLKKKEMHSKPHRQLCRSPCLDRPSFSQSSILQDGKLDLEKEYQAKMEFALKLGYAEEQIQSVLNKLGPESLINDVLAELVRLGNKGDSEGQINLSLLVPRGPSSREIASPELSLEDEIDNSDNLRPVVIDGSNVAMSHGNKEEFSCRGIQLAVDWFLDKGHKDITVFVPAWRKEQSRPDAPITDQDILRKLEKEKILVFTPSRRVQGRRVVCYDDRFIVKLAFDSDGIIVSNDNYRDLQVEKPEWKKFIEERLLMYSFVNDKFMPPDDPLGRHGPSLENFLRKRPIVPEHKKQPCPYGKKCTYGHKCKYYHPERANQPQRSVADELRISAKLSTVKTMSEGTLAKCGTGMSSAKGEITSEVKRVAPKRQSDPSIRSVAMEPEEWLSIARKPEASSVPSLVTALSVPTIPPPKSHAVGALNTRSASSPVPGSSHFPHQKASLEHMASMQYPPILVTNSHGTPISYAEQYPKFESMGDHGYYSMLGDFSKLNINSMHNREYYMAEVDRGVYARNPNLCSDSRVSHTRNDNYSSYNNVYLAVADTHPEGNLKLHRSASQNRLQPFPHGYHEALTRVQSYGPEDSKQGPHKQSVPHLALHAQHPSTGTRSSCPADYPMPPNIHPGATPQPGRALVMTRMDSISDSRLYESNPVRQRRPPLCREQHASWDPLPCTTDSYGYHSYPLSNSLMQPCYEPVMVRSVPEKMEQLWRNPWVGMCNDSREHMIPEHQYQTYKNLCNIFPSNIVLAVMEKNPHTADAQQLAALIVAKLRAAR

Test system: peptides in gingival brush samples
Assay: Protein and peptide profiling of gingival brush samples (LC-MS/MS), TABLE 23
Format: in vivo, human
Conditions: peptide abundance, gingival brush samples; for Mean Cntl Bsl / Mean Cntl Wk3: control regimen; for Mean Cntl Bsl / Mean TrtBsl: baseline; for Mean Cntl Wk3 / Mean TrtWk3: week 3; for Mean TrtBsl / Mean TrtWk3: treatment regimen

Row | Molecule | Mean Cntl Bsl | Mean Cntl Wk3 | Mean TrtBsl | Mean TrtWk3
1 | B1 | 2938.5 | 6338.7 | 4840.4 | 9887.5
2 | B2 | 2581.7 | 2565.0 | 1326.8 | 2861.3
3 | B3 | 1477.7 | 2558.2 | 1376.3 | 2985.7
4 | B4 | 4884.9 | 5952.9 | 5340.0 | 8397.1
5 | B5 | 8855.0 | 11333.1 | 7117.7 | 13237.7
6 | B6 | 8545.7 | 5412.1 | 11145.3 | 2920.2
7 | B7 | 16697.8 | 26985.8 | 14423.1 | 30893.5
8 | B8 | 10415.4 | 17103.0 | 11806.1 | 18455.9
9 | B9 | 5903.5 | 1876.8 | 14702.2 | 1027.9
